PMC8901487
These are yes or no findings as the source states them, for the method shown. Binding seen in cells or lysates may run through a third protein. A yes stands for co-enrichment or nearness to the bait. Other partners may have been found.

Amino acid sequences for entries named in this document (tags omitted).
UniProt Q6ZTA4: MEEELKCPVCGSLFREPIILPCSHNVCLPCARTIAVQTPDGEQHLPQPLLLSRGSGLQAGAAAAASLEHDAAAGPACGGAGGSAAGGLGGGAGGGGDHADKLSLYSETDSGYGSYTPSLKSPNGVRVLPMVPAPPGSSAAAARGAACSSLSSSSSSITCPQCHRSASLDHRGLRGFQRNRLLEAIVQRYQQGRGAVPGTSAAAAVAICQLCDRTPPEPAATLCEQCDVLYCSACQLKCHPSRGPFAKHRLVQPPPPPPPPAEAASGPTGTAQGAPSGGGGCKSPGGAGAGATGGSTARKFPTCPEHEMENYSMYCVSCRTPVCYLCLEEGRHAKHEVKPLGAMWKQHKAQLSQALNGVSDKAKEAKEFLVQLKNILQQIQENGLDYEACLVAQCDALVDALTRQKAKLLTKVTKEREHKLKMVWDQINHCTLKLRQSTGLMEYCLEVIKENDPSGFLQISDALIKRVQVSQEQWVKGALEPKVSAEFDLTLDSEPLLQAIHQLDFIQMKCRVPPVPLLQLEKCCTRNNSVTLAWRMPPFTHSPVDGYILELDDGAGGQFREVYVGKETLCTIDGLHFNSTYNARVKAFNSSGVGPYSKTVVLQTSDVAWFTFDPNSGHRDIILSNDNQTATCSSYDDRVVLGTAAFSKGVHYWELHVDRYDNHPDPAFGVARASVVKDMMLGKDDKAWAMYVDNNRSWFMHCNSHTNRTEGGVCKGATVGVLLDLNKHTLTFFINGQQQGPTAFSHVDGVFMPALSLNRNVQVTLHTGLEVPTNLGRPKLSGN
UniProt Q9UKB1: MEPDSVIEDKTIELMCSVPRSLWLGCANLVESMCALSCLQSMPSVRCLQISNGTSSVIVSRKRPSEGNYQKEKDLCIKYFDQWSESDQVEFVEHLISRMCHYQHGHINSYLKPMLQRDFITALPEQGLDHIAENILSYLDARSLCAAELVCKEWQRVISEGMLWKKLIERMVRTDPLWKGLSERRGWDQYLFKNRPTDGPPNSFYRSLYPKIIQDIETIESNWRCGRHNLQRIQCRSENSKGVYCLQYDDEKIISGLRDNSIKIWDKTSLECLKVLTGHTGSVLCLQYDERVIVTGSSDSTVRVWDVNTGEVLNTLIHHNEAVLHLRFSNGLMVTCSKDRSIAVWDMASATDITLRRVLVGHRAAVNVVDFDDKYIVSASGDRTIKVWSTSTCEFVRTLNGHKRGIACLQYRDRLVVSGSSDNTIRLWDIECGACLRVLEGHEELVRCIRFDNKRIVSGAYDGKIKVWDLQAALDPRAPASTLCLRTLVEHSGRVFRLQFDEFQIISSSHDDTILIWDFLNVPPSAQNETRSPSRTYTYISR

Biological target: FLAG-tagged TRIM67 (wild type, full length) (human) (UniProt Q6ZTA4)
Assay: affinity purification with mass spectrometry; 293T cells transfected with pTRIP-TRIM67-3FLAG or empty vector, NP40 lysis buffer, anti-FLAG M2 affinity gel at 4°C overnight, five washes, elution with 3X FLAG peptide, LC-MS/MS

binding: binds
Substance: endogenous β-TrCP (from UniProt Q9UKB1 1-542)
